Molecules are shown by their SMILES. Structures can show the parent of a compound that is named as a salt.

For the series, the system named is disorders of cardiac rhythm provoked by aconitine in rats. The format is in vivo. The following applies: therapeutical index of the new compound : therapeutical index of Lidocaine. The procedure:
When examining the antiarrhythmic effects, rats were pre-treated intravenously with 1 mg/kg of aconitine to provoke disorders of cardiac rhythm [Med. Exp. (Basel) 10, 93 (1964)], thereafter the test compound was administered intravenously, and the dose required to restore the rhythm in 50% (ED50 mg/kg) was determined.
For the molecule `CCOc1ccc(C(=O)OC2C3CN(C)CC2CN(C)C3)cc1OC` (stereo not shown) [3,7-Dimethyl-9-(3'-methoxy-4'-ethoxy-benzoyloxy)-3,7-diazabicyclo[3.3.1]nonane], the Ratio of indices is recorded as 5.
Take `CN1CC2CN(C)CC(C1)C2Oc1ccc(Cl)cc1.O=C(O)/C=C/C(=O)O` (stereo not shown) [3,7-Dimethyl-9-(4'-chlorophenoxy)-3,7-diazabicyclo[3.3.1]nonane fumarate]: the Ratio of indices is given as 21.
With `CN1CC2CN(C)CC(C1)C2OC(c1ccccc1)c1ccccc1.O=C(O)/C=C/C(=O)O` (stereo not shown) [3,7-Dimethyl-9-benzhydryloxy-3,7-diazabicyclo[3.3.1]nonane fumarate] the figure was 6.
With `CN1CC2CN(C)CC(C1)C2OC(=O)c1ccccc1` (stereo not shown) [3,7-Dimethyl-9-benzoyloxy-3,7-diazabicyclo[3.3.1]nonane] the figure was 39.
As to `CCCCN1CC2CN(CCCC)CC(C1)C2OC(=O)c1ccc(Cl)cc1` (stereo not shown) [3,7-di-n-butyl-9-(4'-chlorobenzoyloxy)-3,7-diazabicyclo[3.3.1]nonane], the Ratio of indices came out at 7.
For the molecule `CCN1CC2CN(CC)CC(C1)C2OC(=O)c1ccc(Cl)cc1.Cl.Cl.O` (stereo not shown) [3,7-diethyl-9-(4'-chloro-benzoyloxy)-3,7-diazabicyclo[3.3.1]nonane dihydrochloride monohydrate], the Ratio of indices is listed as 10.
For the molecule `CN1CC2CN(C)CC(C1)C2OC(=O)c1ccc2ccccc2c1` (stereo not shown) [3,7-dimethyl-9-(2'-naphthoyloxy)-3,7-diazabicyclo[3.3.1]nonane], the Ratio of indices is given as 58.
Regarding `CN1CC2CN(C)CC(C1)C2OC(=O)C1c2ccccc2Oc2ccccc21` (stereo not shown) [3,7-dimethyl-9-(xanthene-9'-carbonyloxy)-3,7-diazabicyclo[3.3.1]nonane], the Ratio of indices came out at 16.
Regarding `CN1CC2CN(C)CC(C1)C2Oc1ccccc1.O=C(O)/C=C/C(=O)O` (stereo not shown) [3,7-dimethyl-9-phenoxy-3,7-diazabicyclo[3.3.1]nonane fumarate], the Ratio of indices came out at 12.
The same measure for `CCN1CC2CN(C)CC(C1)C2OC(=O)c1ccc(Cl)cc1Cl` (stereo not drawn) [3-Methyl-7-ethyl-9α-(2',4'-dichloro-benzoyloxy)-3,7-diazabicyclo[3.3.1]nonane dihydrochloride]: 6; for `CCN1CC2CN(C)CC(C1)C2Oc1ccccc1Cl` (stereo not drawn) [3-Methyl-7-ethyl-9α-(2'-chlorophenoxy)-3,7-diazabicyclo[3.3.1]nonanedihydrochloride]: 8.
Regarding `CCN1CC2CN(C)CC(C1)C2Oc1ccc(Cl)cc1` (stereo not drawn) [3-Methyl-7-ethyl-9α-(4'-chlorophenoxy)-3,7-diazabicyclo[3.3.1]nonanedihydrochloride], the Ratio of indices is 12.
The same measure for `CCN1CC2CN(C)CC(C1)C2OC(=O)c1ccc(-c2ccccc2)cc1` (stereo not drawn) [3-Methyl-7-ethyl-9α-(4'-phenyl-benzoyloxy)-3,7-diazabicyclo[3.3.1]nonane]: 6.

The record behind these values is US4451473A, “3,7-Diazabicyclo [3.3.1] nonanes having anti-arrhythmic activity” (Richter Gedeon Vegyeszeti Gyar Rt., priority 1981, dated 1984).
